This is an account of results in the supplement of paper PMC3334620.

Whole data set: some 33,000 sequences, median “E-score (-0.5 to 0.5)” near -8e-05, cut for the highest 2% near 0.23. The list shows a part of the results.

The assay deals with T1, Nrg2 (UniProt P38082).
T1 sequence: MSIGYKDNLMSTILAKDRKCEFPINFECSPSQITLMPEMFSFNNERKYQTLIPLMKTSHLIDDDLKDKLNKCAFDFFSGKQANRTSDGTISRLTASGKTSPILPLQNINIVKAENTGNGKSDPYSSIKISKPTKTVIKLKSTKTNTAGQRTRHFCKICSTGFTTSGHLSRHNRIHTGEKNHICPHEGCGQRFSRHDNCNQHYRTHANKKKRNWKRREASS
Nature of the assay: PBM E-score (8-mer binding enrichment) (E-score (-0.5 to 0.5)); higher = stronger / more preferred TF binding. The settings on record: protein concentration: 100 nM; construct: GST-full length. The method, boiled down:
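Universal all-10-mer Agilent arrays, fresh or stripped once, were converted to double-stranded form by primer extension. GST-tagged yeast transcription factors from PURExpress in vitro transcription/translation, full-length or DNA-binding domain only, were applied at about 100-200 nM and detected with fluorescent anti-GST. After masliner normalisation, the Universal PBM Analysis Suite scored each ungapped eight-base word together with its reverse complement by E-score.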
As to GGTAAGAC, the “PBM E-score” value was -0.187.

Consider CTCAAATA, for which the “PBM E-score” value was -0.0124.

CTGATTTA: the “PBM E-score” value turned out to be 0.0778.

In the case of AGCTGGAT, the “PBM E-score” value is -0.0223.

Take CTTATACA: the “PBM E-score” value is -0.0688.

For the sequence ACAAGGCC, the “PBM E-score” value was -0.159.

As for GACACTGA, the “PBM E-score” value is 0.0497.

Turning to CCTTGAAC, the “PBM E-score” value is -0.0194.

In the case of AAACTGGT, the “PBM E-score” value was -0.0176.

As to ACCAATCC, the “PBM E-score” value was 0.133.

For GTAGCACA, the “PBM E-score” value was -0.0525.

GAGTGTAC: the “PBM E-score” value was -0.0919.

AGAGTTTA: the “PBM E-score” value was 0.0568.

Turning to CACGTCCG, the “PBM E-score” value is -0.14.

With AGTGACGA, the “PBM E-score” value stood at 0.0685.

Consider AGAGACAT, for which the “PBM E-score” value was found to be 0.0901.

With CGGACGGA, the “PBM E-score” value is -0.176.

GGGGTTAA: the “PBM E-score” value was found to be 0.00165.

On to ATGTTCCG, for which the “PBM E-score” value was determined as 0.0682.

Turning to AACCGGAT, the “PBM E-score” value is 0.0929.

For CCCGCACC, the “PBM E-score” value was 0.0135.

Turning to ACAATTAG, the “PBM E-score” value is -0.063.

With GATCATCC, the “PBM E-score” value came to 0.1.

AGCGACTA: the “PBM E-score” value is -0.042.

In the case of CTCGCGCC, the “PBM E-score” value was -0.0298.

On to ACATCCTA, for which the “PBM E-score” value was 0.0559.

As to CAAGGCTA, the “PBM E-score” value is -0.11.

Take ACTCTTTA: the “PBM E-score” value is -0.0446.

As for GTGCGTGA, the “PBM E-score” value stood at 0.0942.

As for AATGCGTA, the “PBM E-score” value was -0.00291.

As to CTAATAAC, the “PBM E-score” value was 0.117.

AGTATAGG: the “PBM E-score” value is -0.0405.

For the sequence CATGCAAC, the “PBM E-score” value was 0.158.

Consider AAAAGACC, for which the “PBM E-score” value was -0.0302.

For CCAGCGAC, the “PBM E-score” value was -0.00853.

Regarding ATGCCGCC, the “PBM E-score” value was -0.128.

For the sequence CTTGCATC, the “PBM E-score” value was -0.0901.

Regarding CTTGCGAA, the “PBM E-score” value is 0.195.

In the case of ACTCGTTC, the “PBM E-score” value is -0.0566.

ATCGTCGG: the “PBM E-score” value is -0.0565.

On to ACTGCGTC, for which the “PBM E-score” value is -0.197.

As for GAACGCAA, the “PBM E-score” value stood at 0.116.

On to ACGGAAAT, for which the “PBM E-score” value is 0.244.

Regarding AACAAAAA, the “PBM E-score” value is 0.17.

Take AGGTTAGG: the “PBM E-score” value worked out at 0.145.

Turning to ACCCAGGT, the “PBM E-score” value was -0.258.

Regarding CGCAACTC, the “PBM E-score” value amounted to 0.147.

In the case of GCGAGTCA, the “PBM E-score” value was -0.0667.

With TAGCACCA, the “PBM E-score” value was -0.0186.

In the case of TGGGTTAA, the “PBM E-score” value was -0.108.

In the case of ACGTTACC, the “PBM E-score” value was -0.17.

As for CCAGGGAA, the “PBM E-score” value is 0.0205.

Consider GTGTCACA, for which the “PBM E-score” value is -0.0111.

In the case of CGATGGGA, the “PBM E-score” value was -0.113.

Regarding ACACCTGG, the “PBM E-score” value is -0.00545.

On to GAAGGTCC, for which the “PBM E-score” value was -0.0364.

For ATGGTTCG, the “PBM E-score” value worked out at 0.109.

As to GGTCAATA, the “PBM E-score” value was found to be 0.0756.

For ACGACGCG, the “PBM E-score” value amounted to 0.114.

ACGTACAG: the “PBM E-score” value is -0.181.

As for GCAGCAGC, the “PBM E-score” value is -0.0495.

For AGGAGATG, the “PBM E-score” value is -0.0887.

Turning to TAGACTAA, the “PBM E-score” value was -0.0628.

For the sequence GCACATCA, the “PBM E-score” value was 0.0661.

In the case of CACTGTGG, the “PBM E-score” value was -0.0836.

For the sequence GGGCCAAA, the “PBM E-score” value is 0.0718.

With CGTTGATA, the “PBM E-score” value is 0.107.

On to ATTCAATC, for which the “PBM E-score” value turned out to be 0.131.

For GTTCCAGA, the “PBM E-score” value was -0.0282.

On to AGTAAGGC, for which the “PBM E-score” value was -0.036.

CCGGAAGA: the “PBM E-score” value was -0.0885.

Turning to GAGTTGGC, the “PBM E-score” value was -0.143.

Take CCCCAATA: the “PBM E-score” value was -0.0225.

AACCGACG: the “PBM E-score” value was determined as 0.159.

As to AAACCATC, the “PBM E-score” value turned out to be 0.103.

For the sequence AGTTCTAA, the “PBM E-score” value is -0.00284.

Regarding AGTGACTC, the “PBM E-score” value is -0.0845.

Turning to ACCACGCA, the “PBM E-score” value was -0.0616.

On to CATACGCC, for which the “PBM E-score” value is -0.0382.

Turning to CTAGTGTC, the “PBM E-score” value was -0.0251.

On to AATTAATT, for which the “PBM E-score” value is -0.112.

For GTTCTCGA, the “PBM E-score” value is 0.0127.

AGGACGTG: the “PBM E-score” value is -0.0972.

On to AGGCCCCC, for which the “PBM E-score” value was -0.405.

As for AATCCCCG, the “PBM E-score” value is 0.0281.

For ATCCGGGC, the “PBM E-score” value is 0.0265.

For TAAGTCGA, the “PBM E-score” value is -0.0659.

Turning to GTTCGATA, the “PBM E-score” value came to 0.208.

Turning to ACCTTGGA, the “PBM E-score” value was -0.0164.

Regarding AGAGAGTG, the “PBM E-score” value was -0.055.

Consider AAAGGTCC, for which the “PBM E-score” value turned out to be 0.0985.

As for ACGTGAGA, the “PBM E-score” value is -0.11.

On to ACTTATGA, for which the “PBM E-score” value was -0.0626.

GCTTTTTA: the “PBM E-score” value is 0.0175.
